Laboratory results from US20170015748A1 (NATIONAL RESEARCH COUNCIL OF CANADA, published 2017).
No constants are given. Whether binding was seen depends on the method and setting. Some binding calls cover weakened binding; strength is not graded here.

By UniProt entry, the sequences of proteins in these tests, tags left out. Where a name states a change or a piece, a line headed by the entry shows the natural chain unless it says otherwise.
UniProt P08069: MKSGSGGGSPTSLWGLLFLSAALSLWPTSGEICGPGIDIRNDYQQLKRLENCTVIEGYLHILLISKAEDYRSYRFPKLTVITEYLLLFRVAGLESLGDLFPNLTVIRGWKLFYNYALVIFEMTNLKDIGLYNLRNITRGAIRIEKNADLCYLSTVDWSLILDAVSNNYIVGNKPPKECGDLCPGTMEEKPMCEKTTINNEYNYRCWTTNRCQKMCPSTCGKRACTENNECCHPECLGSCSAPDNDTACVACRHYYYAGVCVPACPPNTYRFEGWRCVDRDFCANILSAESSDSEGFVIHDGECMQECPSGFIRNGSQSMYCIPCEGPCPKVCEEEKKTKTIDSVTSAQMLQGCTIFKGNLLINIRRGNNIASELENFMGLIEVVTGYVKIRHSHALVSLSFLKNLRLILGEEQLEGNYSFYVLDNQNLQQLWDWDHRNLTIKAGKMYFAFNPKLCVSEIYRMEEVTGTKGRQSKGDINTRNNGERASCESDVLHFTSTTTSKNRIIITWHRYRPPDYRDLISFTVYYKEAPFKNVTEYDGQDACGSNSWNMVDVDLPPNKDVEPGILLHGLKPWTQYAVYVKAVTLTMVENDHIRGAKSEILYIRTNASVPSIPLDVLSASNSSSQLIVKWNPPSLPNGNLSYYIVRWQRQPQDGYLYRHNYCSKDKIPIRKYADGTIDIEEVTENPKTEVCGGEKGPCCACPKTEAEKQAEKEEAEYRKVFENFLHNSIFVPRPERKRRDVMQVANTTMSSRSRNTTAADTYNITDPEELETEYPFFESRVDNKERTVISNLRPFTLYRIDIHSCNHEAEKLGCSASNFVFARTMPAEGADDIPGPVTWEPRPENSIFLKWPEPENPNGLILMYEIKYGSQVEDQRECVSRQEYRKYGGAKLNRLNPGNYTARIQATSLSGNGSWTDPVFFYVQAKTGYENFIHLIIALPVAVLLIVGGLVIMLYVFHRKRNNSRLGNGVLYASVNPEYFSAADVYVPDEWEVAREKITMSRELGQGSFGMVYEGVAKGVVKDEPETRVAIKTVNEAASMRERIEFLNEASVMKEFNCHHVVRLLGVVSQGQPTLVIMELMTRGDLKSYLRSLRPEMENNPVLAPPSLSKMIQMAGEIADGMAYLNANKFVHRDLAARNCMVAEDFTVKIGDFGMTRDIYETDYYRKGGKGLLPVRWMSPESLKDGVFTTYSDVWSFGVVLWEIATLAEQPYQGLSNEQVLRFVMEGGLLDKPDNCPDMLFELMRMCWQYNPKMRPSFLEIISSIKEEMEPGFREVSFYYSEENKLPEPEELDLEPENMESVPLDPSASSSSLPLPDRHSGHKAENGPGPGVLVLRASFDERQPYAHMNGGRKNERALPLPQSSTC

Experiments:
[1] = target: recombinant extracellular portion of human IGF1R (IGF1R^933-His fragment) (human) (UniProt P08069); assay: SPR (BIACORE 3000); human IGF1R immobilised on a CM5 chip, VHH injected at 0.1-10 nM (range from the legend; single traces are not labelled)
[2] = target: recombinant extracellular portion of human IGF1R (IGF1R^933-His fragment) (human) (UniProt P08069); assay: SPR
[3] = target: recombinant extracellular portion of human IGF1R (IGF1R^933-His fragment) (human) (UniProt P08069); assay: phage ELISA, plates coated with 5 µg/ml IGF1R^933-His
[4] = target: recombinant extracellular portion of human IGF1R (IGF1R^933-His fragment) (human) (UniProt P08069); assay: SPR (legend of FIG. 3D)

Binder	binding [1]	binding [2]	binding [3]	binding [4]
IGF1R-5_H3 (VHH, Humanized variant of IGF1R-5, expressed from pSJF2H in E. coli) VHH: QVQLVESGGGLVQPGGSLRLSCAASGRTIDNYAMAWSRQAPGKGLEFVATIDWGDGGTRYANSVKGRFTISRDNSKNTMYLQMNSLRAEDTAVYYCAMARQSRVNLDVARYDYWGQGTLVTVSS	binds	binds	–	–
IGF1R-5_H1 (VHH, Humanized variant of IGF1R-5, expressed from pSJF2H in E. coli) VHH: EVQLVESGGGLVQPGGSLRLSCAASGRTIDNYAMAWVRQAPGKGLEWVSTIDWGDGGTRYANSVKGRFTISRDNSKNTLYLQMNSLRAEDTAVYYCAMARQSRVNLDVARYDYWGQGTLVTVSS	binds	binds	–	–
IGF1R-5_H2 (VHH, Humanized variant of IGF1R-5, expressed from pSJF2H in E. coli; also called IGF1R H2) VHH: QVQLVESGGGLVQPGGSLRLSCAASGRTIDNYAMAWVRQAPGKGLEWVATIDWGDGGTRYANSVKGRFTISRDNSKNTMYLQMNSLRAEDTAVYYCAMARQSRVNLDVARYDYWGQGTLVTVSS	binds	binds	–	–
IGF1R-5 VHH (VHH, Llama VHH expressed in E. coli TG1 from vector pSJF2H and purified by IMAC; Monomeric by SEC; also called anti-IGF1R VHH IGF1R-5; wild-type IGF1R-5) VHH: QVKLEESGGGLVQAGGSLRLSCAASGRTIDNYAMAWSRQAPGKDREFVATIDWGDGGARYANSVKGRFTISRDNAKGTMYLQMNNLEPEDTAVYSCAMARQSRVNLDVARYDYWGQGTQVTVSS	binds	binds	binds	binds

Now from value to binder:

binding [1]	binding [2]	binding [3]	binding [4]	Binder
binds	binds	–	–	IGF1R-5_H5 (VHH, Humanized variant of IGF1R-5, expressed from pSJF2H in E. coli) VHH: QVQLVESGGGLVQPGGSLRLSCAASGRTIDNYAMAWSRQAPGKDREFVATIDWGDGGTRYANSVKGRFTISRDNSKGTMYLQMNSLRAEDTAVYSCAMARQSRVNLDVARYDYWGQGTLVTVSS
binds	binds	–	–	IGF1R-5_H6 (VHH, Humanized variant of IGF1R-5, expressed from pSJF2H in E. coli) VHH: EVQLVESGGGLVQPGGSLRLSCAASGRTIDNYAMAWSRQAPGKDREFVSTIDWGDGGTRYANSVKGRFTISRDNSKNTLYLQMNSLRAEDTAVYYCAMARQSRVNLDVARYDYWGQGTLVTVSS
